Results are given in words; binding and its absence hold for the method and conditions named. In cells and extracts the contact can be indirect. A result given as binding can be weak or reduced; the word gives no strength. For some assays here: Tags and fused reporters may be left off the sequences shown.

The chains behind the UniProt entries cited, without tags or fusion partners.
UniProt Q9D6K5: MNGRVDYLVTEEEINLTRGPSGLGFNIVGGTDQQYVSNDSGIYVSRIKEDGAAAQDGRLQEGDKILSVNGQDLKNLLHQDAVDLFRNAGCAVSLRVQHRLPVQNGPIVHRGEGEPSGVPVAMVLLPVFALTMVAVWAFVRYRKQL

Binding data for one substance are collected here from paper PMC10963278.

Test [1] has as its target T1, myc-tagged SYNJ2BP S21E (rat) (UniProt Q9WVJ4).
T1 sequence: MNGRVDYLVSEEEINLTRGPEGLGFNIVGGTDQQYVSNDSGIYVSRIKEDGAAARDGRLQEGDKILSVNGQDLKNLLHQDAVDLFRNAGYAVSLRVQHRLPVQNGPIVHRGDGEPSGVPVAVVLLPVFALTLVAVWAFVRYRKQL
As to the kind of experiment: proximity ligation; Duolink PLA (anti-SYNJ2BP and anti-SYNJ2) on primary mouse hippocampal neurons overexpressing mitoRaspberry and SYNJ2BP WT, S21A or S21E; puncta per soma normalised to soma size.

The target of test [2] is Synaptojanin 2 binding protein (SYNJ2BP), endogenous (mouse (endogenous in primary hippocampal neurons)) (UniProt Q9D6K5). As to the kind of experiment: proximity ligation; Duolink PLA on fixed, permeabilised primary mouse hippocampal neurons with mouse anti-SYNJ2BP and rabbit anti-SYNJ2 against the endogenous proteins; puncta per soma normalised to soma size; in Hibernate E imaging medium or full B27 culture medium; treatments: control, AICAR (1 mM, 2 h), insulin starvation (2 h), insulin (500 nM, 1 h) with or without GSK1904529A (1 µM, 2 h).

For the substance “Synaptojanin 2 (SYNJ2), endogenous (from UniProt Q9D2G5-6)”, the binding result in test [1] and in test [2] was “binds” throughout.
